The source of these data is publication PMC9036128, “An anti-ANGPTL3/8 antibody decreases circulating triglycerides by binding to a LPL-inhibitory leucine zipper-like motif” (Journal of Lipid Research, 2022).

Results are given in words; binding and its absence hold for the method and conditions named. Some binding calls cover weakened binding; strength is not graded here. For some of these results: Sequences can lack the tags named with a protein.

The target in test [1] is T1, avidin-tagged LPL copurified with GPIHBP1 (human) (UniProt P06858+Q8IV16).
T1 sequence 1: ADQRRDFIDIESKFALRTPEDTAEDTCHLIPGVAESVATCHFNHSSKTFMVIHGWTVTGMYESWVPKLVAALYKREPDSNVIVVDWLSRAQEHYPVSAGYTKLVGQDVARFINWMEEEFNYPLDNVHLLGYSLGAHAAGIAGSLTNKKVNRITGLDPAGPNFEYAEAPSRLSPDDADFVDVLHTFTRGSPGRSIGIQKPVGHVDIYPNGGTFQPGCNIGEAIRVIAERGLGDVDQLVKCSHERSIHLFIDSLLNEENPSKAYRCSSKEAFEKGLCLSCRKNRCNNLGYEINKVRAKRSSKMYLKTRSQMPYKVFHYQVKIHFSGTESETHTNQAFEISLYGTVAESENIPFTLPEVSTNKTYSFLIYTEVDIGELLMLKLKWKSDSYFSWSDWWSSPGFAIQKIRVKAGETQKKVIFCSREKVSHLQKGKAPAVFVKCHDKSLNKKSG
T1 sequence 2: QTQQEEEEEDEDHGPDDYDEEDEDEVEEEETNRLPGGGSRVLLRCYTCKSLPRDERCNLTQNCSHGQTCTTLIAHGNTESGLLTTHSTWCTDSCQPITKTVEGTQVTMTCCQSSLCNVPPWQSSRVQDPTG
The test is described as follows: BLI; Octet RED96e; avidin-tagged LPL copurified with GPIHBP1 immobilised on streptavidin biosensors; ANGPTL3/8 preincubated 30 min at room temperature with no antibody, an irrelevant isotype-matched control antibody or the anti-ANGPTL3/8 antibody (10:1 antibody:ANGPTL3/8); dissociation in buffer-only wells; both purified. (In general: In BLI a coated tip is dipped into the sample, and binding shifts an interference pattern.)

Test [2] has as its target T2, human GPIHBP1-LPL complex (human) (UniProt P06858+Q8IV16).
T2 sequence 1: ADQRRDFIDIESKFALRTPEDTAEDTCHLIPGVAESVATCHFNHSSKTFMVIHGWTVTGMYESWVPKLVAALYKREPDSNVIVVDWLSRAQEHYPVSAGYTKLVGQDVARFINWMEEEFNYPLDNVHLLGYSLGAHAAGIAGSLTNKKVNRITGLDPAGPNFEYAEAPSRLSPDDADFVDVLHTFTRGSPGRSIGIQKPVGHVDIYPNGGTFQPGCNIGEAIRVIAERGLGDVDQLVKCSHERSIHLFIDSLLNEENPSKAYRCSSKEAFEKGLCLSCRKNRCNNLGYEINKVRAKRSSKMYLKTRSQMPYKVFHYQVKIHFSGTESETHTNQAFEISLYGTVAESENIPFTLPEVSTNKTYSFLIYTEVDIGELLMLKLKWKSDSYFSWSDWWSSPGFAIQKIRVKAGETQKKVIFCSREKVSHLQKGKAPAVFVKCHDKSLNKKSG
T2 sequence 2: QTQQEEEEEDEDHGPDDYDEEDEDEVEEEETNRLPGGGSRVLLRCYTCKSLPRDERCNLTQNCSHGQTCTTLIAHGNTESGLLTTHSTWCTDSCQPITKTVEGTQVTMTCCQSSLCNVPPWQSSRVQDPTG
The test is described as follows: HDX-MS; ANGPTL3/8 complex (12 uM) bound by GPIHBP1-LPL (18 uM) or ApoA5 (18 uM) against unbound complex; pH 7.4, 10 mM sodium phosphate, 150 mM NaCl, 15 C; 10 s, 2 min, 10 min, 60 min; nepenthesin II digestion; triplicate; both purified.

For test [3], the target named is T3, human ANGPTL3/8 complex (human) (UniProt Q9Y5C1+Q6UXH0).
T3 sequence 1: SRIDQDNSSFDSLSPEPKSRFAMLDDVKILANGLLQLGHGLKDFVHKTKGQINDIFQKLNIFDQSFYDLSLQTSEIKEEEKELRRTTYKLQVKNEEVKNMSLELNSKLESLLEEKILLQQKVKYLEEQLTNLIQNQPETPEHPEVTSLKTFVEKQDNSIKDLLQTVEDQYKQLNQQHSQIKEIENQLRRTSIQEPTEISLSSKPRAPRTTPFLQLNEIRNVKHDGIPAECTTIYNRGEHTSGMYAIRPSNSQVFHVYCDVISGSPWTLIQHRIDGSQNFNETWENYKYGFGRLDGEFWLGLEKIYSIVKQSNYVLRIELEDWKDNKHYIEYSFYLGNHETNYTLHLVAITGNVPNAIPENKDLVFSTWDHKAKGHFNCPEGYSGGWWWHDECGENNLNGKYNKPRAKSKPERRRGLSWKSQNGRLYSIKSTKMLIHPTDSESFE
T3 sequence 2: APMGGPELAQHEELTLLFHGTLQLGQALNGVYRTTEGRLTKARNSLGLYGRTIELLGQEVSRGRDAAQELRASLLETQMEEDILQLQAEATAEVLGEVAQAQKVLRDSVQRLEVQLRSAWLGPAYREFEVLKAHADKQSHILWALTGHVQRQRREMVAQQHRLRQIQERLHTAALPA
The test is described as above.

Test [4] addresses T4, HIS tag-mature human LPL (residues 28-475) (human) (UniProt P06858).
T4 sequence: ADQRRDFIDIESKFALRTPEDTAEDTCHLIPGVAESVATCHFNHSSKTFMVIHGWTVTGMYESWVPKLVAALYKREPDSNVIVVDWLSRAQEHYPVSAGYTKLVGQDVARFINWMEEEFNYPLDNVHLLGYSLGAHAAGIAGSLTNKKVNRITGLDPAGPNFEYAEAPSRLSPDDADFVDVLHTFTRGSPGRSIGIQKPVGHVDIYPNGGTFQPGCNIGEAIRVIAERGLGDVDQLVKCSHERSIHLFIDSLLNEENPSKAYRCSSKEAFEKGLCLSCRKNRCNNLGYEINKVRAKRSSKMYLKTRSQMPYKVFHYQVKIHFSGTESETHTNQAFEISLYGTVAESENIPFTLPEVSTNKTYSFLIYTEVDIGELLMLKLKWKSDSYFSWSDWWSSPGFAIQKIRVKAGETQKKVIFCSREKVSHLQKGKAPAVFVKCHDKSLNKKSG
The test is described as follows: co-purification (Ni-NTA affinity, size-exclusion chromatography); HIS-tagged LPL and GPIHBP1(1-151 R58G) cotransfected in HEK293 cells; complex purified from culture media harvested 5 days posttransfection. Background: In gel filtration, larger molecules generally elute earlier.

B1: human ANGPTL3/8 complex (complex, UniProt Q9Y5C1 17-460; Q6UXH0 22-198)
chain 1: SRIDQDNSSFDSLSPEPKSRFAMLDDVKILANGLLQLGHGLKDFVHKTKGQINDIFQKLNIFDQSFYDLSLQTSEIKEEEKELRRTTYKLQVKNEEVKNMSLELNSKLESLLEEKILLQQKVKYLEEQLTNLIQNQPETPEHPEVTSLKTFVEKQDNSIKDLLQTVEDQYKQLNQQHSQIKEIENQLRRTSIQEPTEISLSSKPRAPRTTPFLQLNEIRNVKHDGIPAECTTIYNRGEHTSGMYAIRPSNSQVFHVYCDVISGSPWTLIQHRIDGSQNFNETWENYKYGFGRLDGEFWLGLEKIYSIVKQSNYVLRIELEDWKDNKHYIEYSFYLGNHETNYTLHLVAITGNVPNAIPENKDLVFSTWDHKAKGHFNCPEGYSGGWWWHDECGENNLNGKYNKPRAKSKPERRRGLSWKSQNGRLYSIKSTKMLIHPTDSESFE
chain 2: APMGGPELAQHEELTLLFHGTLQLGQALNGVYRTTEGRLTKARNSLGLYGRTIELLGQEVSRGRDAAQELRASLLETQMEEDILQLQAEATAEVLGEVAQAQKVLRDSVQRLEVQLRSAWLGPAYREFEVLKAHADKQSHILWALTGHVQRQRREMVAQQHRLRQIQERLHTAALPA
Regarding B1, the binding entry in test [1] and in test [2] was “binds” throughout.

B2: human ApoA5 (HSA-tagged) (protein, UniProt Q6Q788 24-366)
chain: RKGFWDYFSQTSGDKGRVEQIHQQKMAREPATLKDSLEQDLNNMNKFLEKLRPLSGSEAPRLPQDPVGMRRQLQEELEEVKARLQPYMAEAHELVGWNLEGLRQQLKPYTMDLMEQVALRVQELQEQLRVVGEDTKAQLLGGVDEAWALLQGLQSRVVHHTGRFKELFHPYAESLVSGIGRHVQELHRSVAPHAPASPARLSRCVQVLSRKLTLKAKALHARIQQNLDQLREELSRAFAGTGTEEGAGPDPQMLSEEVRQRLQAFRQDTYLQIAAFTRAIDQETEEVQQQLAPPPPGHSAFAPEFQQTDSGKVLSKLQARLDDLWEDITHSLHDQGHSHLGDP
Turning to B2, in test [3], the binding result is “binds”.

B3: GPIHBP1(1-151 R58G) (domain or fragment, UniProt Q8IV16 21-151)
chain: QTQQEEEEEDEDHGPDDYDEEDEDEVEEEETNRLPGGGSRVLLRCYTCKSLPRDERCNLTQNCSHGQTCTTLIAHGNTESGLLTTHSTWCTDSCQPITKTVEGTQVTMTCCQSSLCNVPPWQSSRVQDPTG
As to B3, the binding result in test [4] is on record as “binds”.
